Experimental data published in PubChem BioAssay AID1259415 (National Center for Advancing Translational Sciences (NCATS), 2018).
Out of some 410,000 compounds screened, about 18,000 (4.4%) were called active. Inconclusive results, whose numbers are uncertain, are shown with a selection of clear calls. Cut-off read from the data, not from the text of the source: active = activity change below about -60%; inconclusive = no clear call, values can overlap the other calls; inactive = above about -39%.

Assay: qHTS Assay for inhibitors of the human cytomegalovirus (HCMV)
Settings: HFF cells, HCMV-luciferase reporter, 72 h; at 57.5 µM; hits give low values
How it was run: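 HFF cells seeded 16 h at 37C, treated with compounds, infected with luciferase-reporter HCMV at MOI 1 PFU/cell; luciferase read at 72 h post infection, normalized to buffer-only and Salinomycin controls.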
% is set by controls: 0 for no effect and ±100 for the full control effect.

SMILES | activity change, negative = inhibition
COc1ccccc1N1CCN(C(=O)CCn2c(=O)[nH]c3ccccc3c2=O)CC1 | inactive: -13.7%
COc1cccc(C(C(=O)NC2CCCC2)N2CCN(c3cc(C)nc4ccccc34)CC2)c1OC (stereo unspecified) | inactive: -36.4%
C=CCN(CC=C)C(=S)NC(=O)c1ccc(C)c(Br)c1 | inconclusive: -48.8%
O=C(/C=C\Nc1ccc2c(c1)OCO2)c1ccccn1 | active: -80.9%
c1ccc2c(c1)CC/C2=N/Nc1nc2ccccc2[nH]1 | active: -112%
CCOc1ccc(NC(=O)CCn2cccn2)cc1 | inactive: 25.9%
Cc1[nH]c2ccccc2c1C(=O)C(=O)NCc1cccs1 | inconclusive: -57%
COc1cccc(/C=N/NC(=O)CNC(=O)C(c2ccccc2)c2ccccc2)c1O | inactive: 17.5%
CCOc1ccc(NC(=O)C2CCN(S(=O)(=O)c3c(C)noc3/C=C/c3ccco3)CC2)cc1 | active: -77.6%
Cc1cc(C)n(Cc2ccccc2)c(=O)c1S(=O)(=O)c1ccccc1 | inconclusive: -44.4%
O=C1[C@H]2[C@H](ON3CCCC[C@H]23)C(=O)N1c1ccc(Cl)cc1 | inconclusive: -52.3%
CCOC(=O)/C(=C/C=C/c1ccccc1)NC(=O)c1ccccc1 | inconclusive: -45.8%
COc1ccc(C2C3=C(CC(C)(C)CC3=O)OC(N)=C2[N+](=O)[O-])cc1 (stereo unspecified) | inconclusive: -42.4%
C/C(=N\N=C(N)N)c1ccc(Cl)c(Cl)c1 | inactive: -24.5%
CCOC(=O)N/N=C(\C)c1ccc(C)c([N+](=O)[O-])c1 | inactive: 3.28%
O=C(Nc1ccc(Nc2ccncc2)cc1)c1ccc(Nc2ccnc3ccc([N+](=O)[O-])cc23)cc1 | inactive: -8.08%
Oc1ccc(Br)cc1CNc1cnc2ccccc2c1 | inactive: 19.4%
CCc1ccc(CN(C(=O)Nc2cccc(Cl)c2)c2ccccn2)cc1 | inactive: 23.7%
COC(=O)C[C@]1(C(=O)OC)CN(C#N)N(c2ccc(Cl)cc2)C12c1ccccc1-c1ccccc12 | active: -102%
CCCCOc1ncnc2c1[nH]c1ccc(OC)cc12 | inactive: 23.8%
COc1ccc(CNC(=O)c2ccc(-c3ccc(F)c(F)c3)c3ccoc23)cc1OC | inconclusive: -46.1%
N=c1c2c(ncn1Cc1ccco1)Oc1c(ccc3ccccc13)C2c1ccccc1 (stereo unspecified) | inactive: -38.3%

SMILES | activity change, negative = inhibition
O=S(=O)(Nc1cc2nc3ccccc3nc2n1Cc1ccccc1)c1ccc(Cl)cc1 | active: -90.7%
CCCCCCCNC(=O)C1(CC2CC(c3ccc(Cl)cc3)=NO2)CCN(C(=O)c2cc(OCC)c(OCC)c(OCC)c2)CC1 (stereo unspecified) | inactive: 171%
CCc1cccc(C)c1NC(=O)c1cc(S(=O)(=O)N2CCCCCC2)cn1C | inactive: -18.1%
O=[N+]([O-])c1ccc(Nc2ccccc2O)c([N+](=O)[O-])c1 | inconclusive: -56.8%
FC(F)(F)C1=Nc2cccc3cccc(c23)N1 | inactive: -13.3%
O=C(Cc1ccc(Cl)cc1)N/N=C1\CCCc2ccccc21 | inconclusive: -55.7%
COc1ccc(OCC(=O)N/N=C(\C)CC(=O)Nc2cccc([N+](=O)[O-])c2)cc1 | inconclusive: -53.3%
COc1cccc(NC(=O)NCc2ccccc2Cl)c1 | inactive: 6.69%
COC(=O)C1(CCSC)NC(c2ccc(O)c(OC)c2)C2C(=O)N(c3ccc(C)cc3)C(=O)C21 (stereo unspecified) | inconclusive: -46.1%
COc1ccc(NC(C)C(=O)N/N=C/c2ccccc2OCc2ccc(Br)cc2)cc1 (stereo unspecified) | inactive: 53.2%
CC(C)Oc1ccccc1C1CC(=O)Nc2cc3c(cc21)OCCO3 (stereo unspecified) | active: -103%
C=CCOC(=O)C1=C(C)N=c2s/c(=C3\C(=O)N(CC(=O)O)c4ccccc43)c(=O)n2C1c1ccc(OC)cc1 (stereo unspecified) | inconclusive: -43.2%
Cc1cc(C)c(-n2nnnc2SCC(=O)c2cc3ccccc3o2)c(C)c1 | inconclusive: -40.5%
Cc1oc(-c2ccc(Cl)cc2)nc1CN1CCCC(C(=O)NCc2ccccn2)C1 (stereo unspecified) | inconclusive: -51.2%
CCOC(=O)c1csc(NC(=O)c2ccc(S(=O)(=O)N(C)C)cc2)n1 | active: -63.2%
O=[N+]([O-])c1ccc(-c2ccc(/C=N/n3cnnc3)o2)c(Br)c1 | active: -90.1%
Cc1cc(C)cc(N(CC(=O)NCc2ccco2)C(=O)CCC(=O)Nc2ccccn2)c1 | inactive: -32.2%
COc1ccc(-c2csc(NC(=O)c3ccoc3C)n2)cc1 | inconclusive: -48.5%
Cc1cc(C)n2cc(CSc3ccc(Cl)cc3)nc2n1 | inconclusive: -59.5%
O=C(OC1CCOC1=O)c1ccc(Cl)c(S(=O)(=O)N2CCCCC2)c1 (stereo unspecified) | inconclusive: -44.6%
COc1ccc(NC(=O)Nc2ccc3c(c2)CC(=O)N([C@H](C)CO)C[C@@H](C)[C@H](CN(C)C(=O)Nc2ccccc2)O3)cc1 | inconclusive: -43.6%
CCn1c(=S)[nH]c2sc3c(c2c1=O)CCCCC3 | inconclusive: -44.2%

SMILES | activity change, negative = inhibition
COC(=O)c1cccc(C(=O)N2CCCC(C(=O)c3ccccc3OC)C2)c1 (stereo unspecified) | inconclusive: -43.8%
CCOC(=O)c1ccccc1NC(=O)c1cc2c(s1)-c1ccccc1SC2 | inactive: 17.3%
O=C(COn1nnc2ccc(Cl)cc21)Nc1ccc(F)cc1 | inconclusive: -44.4%
Cc1ccc(C(=O)Nc2ccccc2N2CCCCC2)cc1[N+](=O)[O-] | inactive: -11.8%
COc1ccc2cc(C(=O)Nc3ccc(Cl)cc3)sc(=O)c2c1OC | inactive: -6.66%
COc1cccc(C2=Cc3ccc(F)cc3C(CC(C)=O)N2c2ccc(C#CC3(O)CCCCC3)cc2)c1 (stereo unspecified) | inactive: 30.7%
Cc1ccc(CNc2ncccc2-c2nc(-c3ccc(Cl)cc3)no2)cc1 | inconclusive: -49%
O=C(CCCn1c(=O)c2sccc2n(Cc2ccc(Cl)cc2)c1=O)NCc1ccc2c(c1)OCO2 | inconclusive: -46.2%
Cc1onc(-c2ccccc2Cl)c1C(=O)Nc1cccc(-c2nc3ncccn3c2C)c1 | inconclusive: -42.8%
COc1ccc(C)c2sc(N(CCCN(C)C)C(=O)c3ccc(S(=O)(=O)N4CCc5ccccc5C4)cc3)nc12 | active: -97.8%
C/C(=N\NC(=O)c1ccc2c(c1)OCO2)c1cccnc1 | inactive: 95.4%
O=c1c2cc(F)ccc2sn1-c1ccccc1 | inactive: -30.4%
Cc1ccccc1C(=O)Nc1nnc(S(=O)(=O)N(C)c2ccc(Cl)cc2)s1 | inconclusive: -50%
Cc1ccc(NC(=O)Nc2cccc([N+](=O)[O-])c2)cc1F | active: -100%
CCCn1c(=N)n(CC(O)c2ccc(C)cc2)c2ccccc21 (stereo unspecified) | inactive: -21%
CC(C)C(NC(=O)c1c(F)cccc1F)C(=O)N1CCN(S(=O)(=O)c2ccc(F)cc2)CC1 (stereo unspecified) | inactive: -13.3%
C/C(Sc1nnc(Cc2ccccc2)o1)=C(/O)c1ccccc1 | inconclusive: -48%
Cc1cccc(C)c1NC(=O)C(c1ccccc1OC(F)(F)F)N1CCN(C)CC1 (stereo unspecified) | active: -62.4%
CC1C(=O)N(Cc2ccccc2F)c2ccccc2N1C(=O)c1c(F)cccc1F (stereo unspecified) | inconclusive: -58.6%
CC(=O)NC1=NN(C(C)=O)C(c2ccccn2)S1 (stereo unspecified) | inconclusive: -44.3%
Cn1c(NC(=O)c2cccnc2)nc2ccccc21 | inactive: 61.6%
COc1ccc(C(=O)C2CCN(C(=O)c3ccc(OC)cc3)CC2)cc1 | inconclusive: -44.1%

Random excerpt: 2 entries already listed.
SMILES | activity change, negative = inhibition
CC(C)C(NC(=O)c1c(F)cccc1F)C(=O)N1CCN(S(=O)(=O)c2ccc(F)cc2)CC1 (stereo unspecified) | inactive: -13.3%
O=C(CCCn1c(=O)c2sccc2n(Cc2ccc(Cl)cc2)c1=O)NCc1ccc2c(c1)OCO2 | inconclusive: -46.2%

Additional results

SMILES | activity change, negative = inhibition
CC(=O)c1c(C(C)=O)c(C)n(-c2ccc3ncccc3c2)c1C | inconclusive: -59.8%
O=C(c1ccc2c(c1)N(Cc1cccc(Cl)c1)C(=O)c1ccccc1S2(=O)=O)N1CCN(c2ccccn2)CC1 | active: -84.1%
CCCCSC(=O)Nc1ccccc1 | inconclusive: -44.3%
CCn1c(NC(C)=O)nc2ccccc21 | inactive: -13.8%
CCCOc1ccc(C(=O)Nc2ccc(-c3cc4ccccc4oc3=O)c(C)c2)cc1 | inconclusive: -46.7%
Cc1cccc(NC(=O)c2ccc(Cl)c(S(=O)(=O)N3CCc4ccccc43)c2)n1 | active: -64.9%
CC(C)[C@H](NS(=O)(=O)c1cccc(C(F)(F)F)c1)C(=O)OCC(N)=O | inconclusive: -56.2%
COc1ccc(NC(=O)CCn2c(-c3ccc(F)cc3)cc(C(C)=O)c2C)c(OC)c1 | inconclusive: 0%
CC1=C([N+](=O)[O-])C(c2ccc(O)c(O)c2)NC(=O)N1 (stereo unspecified) | inconclusive: -59.9%
CCCNc1ncnc2c1c(-c1ccccc1)cn2-c1ccc(OCC)cc1 | inconclusive: -48.8%
Cc1ccc(-n2c(C)cc(/C=N/NC(=O)CN(c3ccc(C)cc3C)S(C)(=O)=O)c2C)cc1 | inactive: -28.9%
CCC1CCCCN1CCCNC(=O)C1CCN(S(=O)(=O)N2CCCCC2)CC1 (stereo unspecified) | inconclusive: -46.5%
COc1ccc(-n2c(N)c(C(=O)NCc3ccco3)c3nc4ccccc4nc32)cc1 | inconclusive: -56%
Cc1cc(N2C(=O)C(O)=C(C(=O)c3ccc(C)o3)C2c2ccc([N+](=O)[O-])cc2)no1 (stereo unspecified) | inconclusive: 0%
O=C1C(=Cc2cccs2)Oc2ccccc21 | active: -69.4%
CN(C)S(=O)(=O)c1ccc(NC(=O)COc2ncnc3c2cnn3-c2ccccc2)cc1 | inconclusive: -53.1%
COc1ccc(S(=O)(=O)NCCc2sc3nc(-c4ccc(C)cc4)nn3c2C)cc1F | active: -73.8%
Cc1cc(NC(=O)CSc2nnc(C(C)N(C)C)n2-c2ccc(F)cc2)no1 (stereo unspecified) | inconclusive: -40.3%
CCOc1ccc(-n2ccnc2SCC(=O)Nc2ccc3c(c2)OCO3)cc1 | inconclusive: -47.5%
CCOc1ccc2nc(N(CCN(CC)CC)C(=O)/C=C/c3cccs3)sc2c1 | inconclusive: -51.3%

Structural class, the entries above containing fluorine (13)
SMILES | activity change, negative = inhibition
COc1ccc(CNC(=O)c2ccc(-c3ccc(F)c(F)c3)c3ccoc23)cc1OC | inconclusive: -46.1%
FC(F)(F)C1=Nc2cccc3cccc(c23)N1 | inactive: -13.3%
O=C(COn1nnc2ccc(Cl)cc21)Nc1ccc(F)cc1 | inconclusive: -44.4%
COc1cccc(C2=Cc3ccc(F)cc3C(CC(C)=O)N2c2ccc(C#CC3(O)CCCCC3)cc2)c1 (stereo unspecified) | inactive: 30.7%
O=c1c2cc(F)ccc2sn1-c1ccccc1 | inactive: -30.4%
Cc1ccc(NC(=O)Nc2cccc([N+](=O)[O-])c2)cc1F | active: -100%
CC(C)C(NC(=O)c1c(F)cccc1F)C(=O)N1CCN(S(=O)(=O)c2ccc(F)cc2)CC1 (stereo unspecified) | inactive: -13.3%
Cc1cccc(C)c1NC(=O)C(c1ccccc1OC(F)(F)F)N1CCN(C)CC1 (stereo unspecified) | active: -62.4%
CC1C(=O)N(Cc2ccccc2F)c2ccccc2N1C(=O)c1c(F)cccc1F (stereo unspecified) | inconclusive: -58.6%
CC(C)[C@H](NS(=O)(=O)c1cccc(C(F)(F)F)c1)C(=O)OCC(N)=O | inconclusive: -56.2%
COc1ccc(NC(=O)CCn2c(-c3ccc(F)cc3)cc(C(C)=O)c2C)c(OC)c1 | inconclusive: 0%
COc1ccc(S(=O)(=O)NCCc2sc3nc(-c4ccc(C)cc4)nn3c2C)cc1F | active: -73.8%
Cc1cc(NC(=O)CSc2nnc(C(C)N(C)C)n2-c2ccc(F)cc2)no1 (stereo unspecified) | inconclusive: -40.3%
